Test results reported in publication PMC10213937 (Frontiers in Pharmacology, 2023).
Read-outs that look alike come from different tables or passages of the source.

Legend:
[1] = Plasma concentrations of ATO, metabolites and VOR in patients (HPLC-MS/MS); assay type: in vivo, human; parameters: Concentration in human blood samples: unit not given here; conditions: for Concentration in human blood samples: n = 3; for Increase of ATO concentration in the VOR group: VOR + ATO vs ATO alone
From the text: The experimental procedures were approved by the Ethics Committee of Shenzhen Hospital of Southern Medical University, and conducted in accordance with the Declaration of Helsinki (No. NYSZYYEC20180017). Subjects were selected from patients seen in the Department of Critical Care Medicine of Shenzhen Hospital of Southern Medical University, who were diagnosed with fungal infections complicated by cardiovascular and cerebrovascular diseases. Written informed consent was obtained from three patients aged 20-55 years. […] All procedures followed the ethical principles of the World Medical Association (WMA) Declaration of Helsinki and were approved by the Medical Ethics Committee of Shenzhen Hospital. […] Prelude […] The injection volume is 2 μL.

[2] = rats
[3] = rat
in vivo = conditions: male, Sprague-Dawley, rat, plasma, po, rats; for AUC(0-t): AUC0–24h; for CL/F: CLz/F; for MRT inf: MRT0-∞; for Vd/F: Vz/F
[4] = VOR 6-day pretreatment + ATO 2 mg/kg oral
[5] = 2 mg/kg, VOR 6-day pretreatment + ATO 2 mg/kg oral

Concentration in human blood samples ([1]; ATO 20 mg alone, 0 h after taking ATO): 2.697 ± 1.342
Concentration in human blood samples ([1]; ATO 20 mg alone, 1 h after taking ATO): 25.710 ± 1.426
Concentration in human blood samples ([1]; ATO 20 mg alone, 2 h after taking ATO): 17.093 ± 3.491
Concentration in human blood samples ([1]; ATO 20 mg alone, 12 h after taking ATO): 2.663 ± 1.678
Concentration in human blood samples ([1]; ATO 20 mg alone, 24 h after taking ATO): 1.210 + 1.326
Concentration in human blood samples ([1]; VOR + ATO (VOR iv 6 mg/kg day 1, 4 mg/kg days 2–3), 0 h after taking ATO): 10.502 + 2.104
Increase of ATO concentration in the VOR group ([1]; 0 h after ATO): 3.89 fold
Increase of ATO concentration in the VOR group ([1]; 1 h after ATO): 1.60 fold
Increase of ATO concentration in the VOR group ([1]; 2 h after ATO): 2.79 fold
Increase of ATO concentration in the VOR group ([1]; 12 h after ATO): 10.07 fold
Increase of ATO concentration in the VOR group ([1]; 24 h after ATO): 16.89 fold
Concentration in human blood samples ([1]; VOR + ATO, 1 h after taking ATO): 41.227 + 4.557
Concentration in human blood samples ([1]; VOR + ATO, 2 h after taking ATO): 47.753 + 3.937
Concentration in human blood samples ([1]; VOR + ATO, 12 h after taking ATO): 26.818 + 3.867
Concentration in human blood samples ([1]; VOR + ATO, 24 h after taking ATO): 20.437 + 5.778
AUC0–24h ([2]; NS + ATO 2 mg/kg oral): 53.863 ± 5.221 ng·h/mL
AUC0-∞ [2, 4]: 194.937 ± 47.325 ng·h/mL
AUC0–24h [2, 4]: 176.848 ± 24.713 ng·h/mL
Stability, measured concentration (mean ± SD) ([3]; 0.05 ng/mL): 0.044 ± 0.007 ng/mL
Stability, measured concentration (mean ± SD) ([3]; 5 ng/mL): 4.784 ± 0.357 ng/mL
Stability, measured concentration (mean ± SD) ([3]; 80 ng/mL): 73.885 ± 9.852 ng/mL
Stability, measured concentration (mean ± SD) ([3]; 24 h, 0.05 ng/mL): 0.047 ± 0.005 ng/mL
Stability, measured concentration (mean ± SD) ([3]; 24 h, 5 ng/mL): 4.773 ± 0.423 ng/mL
Stability, measured concentration (mean ± SD) ([3]; 24 h, 80 ng/mL): 77.681 ± 6.004 ng/mL
AUC(0-t) (in vivo; 2 mg/kg, NS + ATO 2 mg/kg oral): 53.9 ng·h/mL
AUC(0-t) (in vivo; [5]): 177 ng·h/mL
CL/F (in vivo; 2 mg/kg, NS + ATO 2 mg/kg oral): 67.3 mL/min/kg
CL/F (in vivo; [5]): 6.98 mL/min/kg
Cmax (in vivo; 2 mg/kg, NS + ATO 2 mg/kg oral): 33.3 ± 4.03 ng/mL
Cmax (in vivo; [5]): 32.5 ± 7.14 ng/mL
MRT inf (in vivo; 2 mg/kg, NS + ATO 2 mg/kg oral): 6.73 ± 1.4 h
MRT inf (in vivo; [5]): 6.73 ± 1.4 h
Tmax (in vivo; 2 mg/kg, NS + ATO 2 mg/kg oral): 0.34 h
Tmax (in vivo; [5]): 2 h
Vd/F (in vivo; 2 mg/kg, NS + ATO 2 mg/kg oral): 10.19 ± 0.065 L/kg
Vd/F (in vivo; [5]): 2.27 ± 11 L/kg
MRT inf (in vivo; [4]): 4.17 ± 0.848 h
SMILES: CC(C)c1c(C(=O)Nc2ccccc2)c(-c2ccccc2)c(-c2ccc(F)cc2)n1CC[C@@H](O)C[C@@H](O)CC(=O)O [ATO, atorvastatin]
